The supplement of paper PMC5407854, “Inhibitor of ppGalNAc-T3-mediated O-glycosylation blocks cancer cell invasiveness and lowers FGF23 levels” (eLife, 2017)
The full ranking holds about 1,700 compounds; the median of “T2 sensor activation Q score (MG/GFP ratio z-score vs DMSO controls)” is about 0.3, and the highest 2% start at about 1.9. The list shows a part of the results.

Test system: ppGalNAc-T2 sensor
Assay: T2 sensor activation Q score (MG/GFP ratio z-score vs DMSO controls) (SD units); higher = more sensor activation (inhibition of ppGalNAc-T2 glycosylation)
Details: HEK293 sensor cells; 10 µM; 6 h
Experimental: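 Cells were treated with compound at 10 uM for 6 h, then MG/GFP ratio was read by flow cytometry (10,000 cells per well, duplicate wells). Q = (R - R_neg)/SD_neg relative to DMSO vehicle controls; the signal rises when the glycosyltransferase is inhibited.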

| SMILES | T2 sensor activation Q score |
| --- | --- |
| Clc1ccc(C(c2ccccc2Cl)C(Cl)Cl)cc1 (stereo not given) | -1.6 |
| O=C(Oc1ccccc1)N(c1ccccc1)c1ccccc1 | 0.35 |
| C[C@]12CC[C@@H]3c4ccc(OCC(=O)O)cc4CC[C@H]3[C@@H]1CCC2=O | -1.05 |
| COC(=O)C1=CC(=O)N2CCN=C2S1 | 0.45 |
| C=CCN(CC=C)C(=O)Nc1cc(OC)ccc1OC | 0.9 |
| COc1ccc(OC(=O)Nc2ccc([N+](=O)[O-])cc2OC)cc1 | 0.95 |
| N[C@H](C(=O)O)[C@H]1ON=C(Cl)[C@H]1O | -1.4 |
| Nc1nc2[nH]cc(CCc3ccc(C(=O)N[C@@H](CCC(=O)O)C(=O)O)cc3)c2c(=O)[nH]1 | -0.75 |
| O=[N+]([O-])c1ccc(/C=C/c2ccncc2)cc1 | -1.35 |
| Nc1ccn(C2OC(CCl)C(O)C2O)c(=O)n1 (stereo not given) | -0.65 |
| O=C(/C=C/c1ccccc1)CC(c1ccccc1)N1CCOCC1 (stereo not given) | -0.6 |
| COC(=O)CC1OCC=C2CN3CCC45C6=CC(=O)C(=O)C([N+](=O)[O-])=C6NC4C1C2CC35 (stereo not given) | 0.85 |
| CN(C)c1ccc(N=Nc2ccccn2)cc1 | -1.95 |
| CCCCCC(=O)N1CCCCC1 | -1.85 |
| C=CCNC(=S)Nc1cccc([N+](=O)[O-])c1 | -0.45 |
| CC(C)NC(=O)c1ccc(C(C)C)cc1 | 1.15 |
| CN(C)c1ccc(/C=C/c2ccc3ccccc3n2)cc1 | -1.2 |
| O=c1[nH]nc(-c2cc(-c3ccccc3)nc3ccccc23)o1 | 1.55 |
| S=c1[nH]ccn1-c1c(Cl)cccc1Cl | 0.9 |
| CSc1nc(Cl)cc(=O)[nH]1 | 0.15 |
| O=C(C(Cl)Cl)N1CC2CCC(CC2)C1 | 0.3 |
| CCOC(=O)N1CCN(Cc2c(O)ccc3ccccc23)CC1 | -0.05 |
| CN(C)C(=O)OCC1COc2ccccc2O1 (stereo not given) | 0.5 |
| CC1=NC2=CC=CC3=NC(C(Cl)(Cl)Cl)=NC(=N1)N23 | -0.9 |
| c1ccc(Nc2cccc3c(Nc4ccccc4)cccc23)cc1 | 1.85 |

| SMILES | T2 sensor activation Q score |
| --- | --- |
| COc1cc2ncnc(Nc3ccc(F)c(Cl)c3)c2cc1OCCCN1CCOCC1 | -1.5 |
| Cc1cccc(C)c1NC(=O)Nc1ccc(S(N)(=O)=O)cc1 | 1.55 |
| C=C(C)C(=O)Nc1ccc(NC(C)C)cc1 | 0.8 |
| NS(=O)(=O)c1cc2c(cc1Cl)NC(CC1CCCC1)NS2(=O)=O (stereo not given) | 0.8 |
| O=C(c1ccccc1)c1ccccc1C(=O)c1ccccc1 | 0.65 |
| CCc1oc2ccccc2c1C(=O)c1cc(Br)c(O)c(Br)c1 | 0.3 |
| CC/C(=C(\c1ccccc1)c1ccc(OCCN(C)C)cc1)c1ccccc1 | -1.45 |
| CCCSc1nc2c(c(=O)n(C)c(=O)n2C)n1C | -0.05 |
| NC(=O)NC1NC(=O)NC1=O (stereo not given) | 0 |
| O=C1c2cccc3cc([N+](=O)[O-])cc(c23)C(=O)N1CCN1CCCC1 | 0.7 |
| O=C(/C=C/c1ccc(O)c(O)c1)OC1[C@H](O)CC(OC(=O)/C=C/c2ccc(O)c(O)c2)(C(=O)O)C[C@H]1O (stereo not given in full) | 0.5 |
| Cc1cc2cc3c(=O)[nH]c(=O)[nH]c3nc2cc1C | -0.35 |
| CC(C)c1cc(C(F)(F)F)nc(NNc2nc(C(C)C)cc(C(F)(F)F)n2)n1 | 0.1 |
| CCC12CCCN3CCc4c(n(c5ccccc45)C(O)(C(=O)OC)C1)C32 (stereo not given) | -0.25 |
| COc1ccc2[nH]c(-c3ccccc3)cc2c1 | -1.6 |
| COc1ccc(C(=S)N2CCN(c3ccccc3C)CC2)cc1 | -0.85 |
| Cc1c(Cl)cccc1NC(=O)CC1Sc2ccccc2NC1=O (stereo not given) | 2 |
| Cn1c(C(=O)c2ccncc2)cc2ccccc21 | -1.65 |
| Cc1nc([C@H]2CC[C@H]3[C@@H]4CCC5=CC(=O)CC[C@]5(C)[C@H]4CC[C@]23C)cs1 | -0.15 |
| Nc1ccc2c(c1Cl)C(=O)c1ccc(N)c(Cl)c1C2=O | 0.3 |
| O=[N+]([O-])c1cccnc1Oc1cc(Cl)c(Cl)cc1Cl | 0.6 |
| CCOc1ccc(/C=C2\NC(=S)NC2=O)cc1 | 1.75 |
| CSC(=O)NC(=O)NC(=O)c1ccc([N+](=O)[O-])cc1 | 1.05 |
| COc1cc2c(O)cc(C(=O)O)c(-c3cc(OC)c(OC)c(OC)c3)c2cc1OC | 0.35 |
| CC1(C)CC(Nc2ccc(Nc3ccccc3)cc2)CC(C)(C)N1 | 1.05 |

Reprinted from the results shown, 7 compounds:

| SMILES | T2 sensor activation Q score |
| --- | --- |
| CSc1nc(Cl)cc(=O)[nH]1 | 0.15 |
| O=C(C(Cl)Cl)N1CC2CCC(CC2)C1 | 0.3 |
| CCOC(=O)N1CCN(Cc2c(O)ccc3ccccc23)CC1 | -0.05 |
| CN(C)C(=O)OCC1COc2ccccc2O1 (stereo not given) | 0.5 |
| CC1=NC2=CC=CC3=NC(C(Cl)(Cl)Cl)=NC(=N1)N23 | -0.9 |
| c1ccc(Nc2cccc3c(Nc4ccccc4)cccc23)cc1 | 1.85 |
| COc1cc2ncnc(Nc3ccc(F)c(Cl)c3)c2cc1OCCCN1CCOCC1 | -1.5 |

Remaining list, next part

| SMILES | T2 sensor activation Q score |
| --- | --- |
| Cc1nc([N+](=O)[O-])cn1-c1nc2ccccn2c1[N+](=O)[O-] | 1 |
| CCCc1nc2c([nH]1)c(=O)n(C)c(=O)n2C | 1.8 |
| CC(C)NCC1CCc2cc(CO)c([N+](=O)[O-])cc2N1 (stereo not given) | -0.55 |
| CCOC(=O)Nc1cc2c(c(N)n1)N=C(c1ccccc1)CN2 | 1.55 |
| COC1OCC(O)C(NC(=O)N(C)N=O)C1O (stereo not given) | 1.2 |
| CC(C)N(Cc1ccccc1)S(=O)(=O)c1n[nH]c(C(C)(C)C)n1 | -1.75 |
| CCCCNC(=O)Nc1ccccc1CC | 1.7 |
| CC1(C)SC(C)(C)N(C=O)C1C(=O)O (stereo not given) | 0.45 |
| CCCCCOC(=O)Nc1nc(=O)n([C@@H]2O[C@H](C)[C@@H](O)[C@H]2O)cc1F | -1.35 |
| Cc1cc2c(cc1[N+](=O)[O-])NC(CNC(C)C)CC2 (stereo not given) | -0.5 |
| NS(=O)(=O)c1ccc(N=Nc2c(O)c(C(=O)O)cc3ccccc23)cc1 | 0.1 |
| Nc1cc(Nc2ccc(Br)cc2)nc(N)n1 | 0.6 |
| COc1nc(N)nc2c1ncn2[C@@H]1O[C@H](CO)[C@@H](O)[C@@H]1O | 0.1 |
| CCCCn1c(OC(=S)N(CC)CC)cc(C)nc1=S | 0.1 |
| Oc1ccccc1-c1nc2c3ccccc3c3ccccc3c2[nH]1 | -1.5 |
| CCCCSc1nc(C(=O)O)cc(=O)[nH]1 | 1.55 |
| CN(CCC#N)c1ccc(/C=C(\C#N)c2cccc(C(F)(F)F)c2)cc1 | 1.85 |
| O=C(O)c1cc(O)ccc1N=Nc1ccccc1 | 1.55 |
| CC(C)C(=O)c1ccc(O)c(O)c1 | 0.9 |
| Cc1c(CCO)c(=O)n2n1CCCC2 | -0.2 |
| CCn1c(=O)n(C)c2c(=O)n(C)c(=O)n(C)c21 | -1.1 |
| Cc1nc2sc3c(c2c(=O)[nH]1)CCCC3 | 0 |
| CCn1c2ccccc2c2c3ncc4cccn4c3ccc21 | 0 |
| CCOC(=O)c1cnn2c(SC)ncnc12 | -0.3 |
| C/C(=N\NC(=S)N1CC2CCC(CC2)C1)c1cnccn1 | -1.25 |

| SMILES | T2 sensor activation Q score |
| --- | --- |
| CCn1c2ccccc2nc2cc3c(cc21)c(Cl)c(=O)c1ccccc13 | 0.25 |
| O=C1CCC(N2C(=O)c3ccccc3C2=O)C(=O)N1 (stereo not given) | 0.2 |
| CCC(C)NC(=S)Nc1ccccc1 (stereo not given) | -0.05 |
| COc1cc2c(cc1OC)C(=O)Cc1ccc3c(c1CN(C)CC2)OCO3 | 1.1 |
| Nc1nc(N)nc(-c2ccccc2-c2nc(N)nc(N)n2)n1 | 0.1 |
| O=C(Nc1ccc(C2=NCCCN2)cc1)Nc1ccc(C2=NCCCN2)cc1 | -0.6 |
| CCOc1ccc(NC(=O)N(O)C2(C#N)CCCCC2)cc1 | 0.95 |
| Cc1cc(N2CCOCC2)nc(N2CCOCC2)n1 | 0.15 |
| CC(C)(c1cc(Cl)c(O)c(CN2CCOCC2)c1)c1cc(Cl)c(O)c(CN2CCOCC2)c1 | 1.2 |
| O=c1[nH]cnc2[nH]ncc12 | -0.85 |
| CC(C)c1nc2c([nH]1)c(=O)n(C)c(=O)n2C | -3.2 |
| C1COCCN1.O=C(O)C(C=C(Cl)Cl)N1CCOCC1 (stereo not given) | 2.65 |
| O=C(O)CCCC[C@@H]1SC[C@@H]2NC(=O)N[C@@H]21 | 0.9 |
| CCOC(=O)C(=O)Cc1cccnn1 | -1.15 |
| O=C1C(Br)=Cc2cccc3cccc1c23 | 0.9 |
| CCSc1ncc(CO)c(N)n1 | 1.65 |
| OC1COC(OCc2ccccc2)C(O)C1O (stereo not given) | 0.35 |
| Nc1cc(N)nc(CS)n1 | 1.45 |
| N#Cc1nnn(-c2ccc(Cl)cc2)c1N | 1 |
| CN(C)C/C=C/C(=O)Nc1cc2c(Nc3ccc(F)c(Cl)c3)ncnc2cc1O[C@H]1CCOC1 | -2.15 |
| S=C(Nc1ccccc1)c1ccccn1 | 1.05 |
| Nc1ccc2c(c1)nnn2-c1ccccc1 | 0.85 |
| NC(=Nc1ccc(N)cc1)C(N)=Nc1ccc(N)cc1 | -1.4 |
| C=C1CC2(OC1=O)c1ccccc1CCc1ccccc12 | -1.9 |
| Cc1ccc(S(=O)(=O)N(C)C)cc1[N+](=O)[O-] | 1.6 |

| SMILES | T2 sensor activation Q score |
| --- | --- |
| C#CCC(Cc1cnc2nc(N)nc(N)c2n1)c1ccc(C(=O)N[C@@H](CCC(=O)O)C(=O)O)cc1 (stereo not given in full) | 0 |
| Clc1ccc2nc3ccccc3cc2c1 | 1.3 |
| CSc1ccc(NC(=O)Nc2ccccc2C(N)=O)cc1 | 0.75 |
| O=[N+]([O-])c1cc(Cl)cc2c1nc(NCCO)c1ccccc12 | -0.15 |
| c1ccc2[nH]c(CCCCCc3nc4ccccc4[nH]3)nc2c1 | 1.7 |
| C(=N\Nc1nnn(Cc2ccccc2)n1)/c1ccccc1 | 0.5 |
| CCCCOc1ccc(N=Nc2ccc(N)nc2N)cn1 | 1.8 |
| O=C1c2cc([N+](=O)[O-])ccc2-c2cc(Br)c(N=C(NO)C(F)(F)F)cc21 | -1.2 |
| NC(=O)SCC(=O)Nc1ccccc1C(=O)O | 0.8 |
| CN(C)C(=S)/N=c1\ssc(=S)n1Cc1ccco1 | 0.75 |
| CCN(CC)C(=O)Cn1ccc(NC(C)=O)nc1=O | 0.5 |
| CC1=CC(C)(C)Nc2ccc(Cc3ccc4c(c3)C(C)=CC(C)(C)N4)cc21 | 0.65 |
| Cn1c([N+](=O)[O-])cnc1N1CCN(c2nncs2)C1=O | -1.65 |
| COc1ccc2c(c1)CCCN2C(N)=Nc1ccc(Cl)cc1 | 1.25 |
| O=Cc1ccc(O)c2ncccc12 | -0.25 |
| CN(C)CCCn1c2c3ccccc3ccc2c2oc(=O)c3ccccc3c21 | -0.8 |
| Cc1cccnc1NC(=S)Nc1ncccc1C | 0.9 |
| OCCN1CCSC1=S | 0.75 |
| CCCNC(=O)c1ccc(Cl)cc1Cl | -1.9 |
| Cc1cc(N2CCN(C)CC2)n2nc(-c3ccc(Cl)cc3)nc2n1 | -0.1 |
| Cn1c(=O)c2[nH]c(N3CCCCC3)nc2n(C)c1=O | 2.15 |
| O=C(O)C1OCC2(CO1)COC(C(=O)O)OC2 (stereo not given) | 0.7 |
| O=C(O)c1ccccc1C(=O)Nc1ccccc1[N+](=O)[O-] | 1.35 |
| CC(C)COc1nc2c(c(=O)n(C)c(=O)n2C)n1C | 0.8 |
| COc1ccc(N/C=C2\C(=O)CCc3c2oc2cc(Cl)c(O)c(Cl)c32)cc1 | 0.75 |

Quoted from the listing.
O=C(O)c1ccccc1C(=O)Nc1ccccc1[N+](=O)[O-] – T2 sensor activation Q score: 1.35
Cn1c([N+](=O)[O-])cnc1N1CCN(c2nncs2)C1=O – T2 sensor activation Q score: -1.65
CCN(CC)C(=O)Cn1ccc(NC(C)=O)nc1=O – T2 sensor activation Q score: 0.5
